Data from patent US20040014636A1, “Pharmaceutical compositions comprising a modulator of adamts-1” (priority 2000, published 2004).
“Also recorded” adds a separate entry of the source. At least one compound was matched to its structure with a doubt left.

Key:
[1] = system: ADAMTS-1 mRNA; assay: Real time PCR of ADAMTS-1 expression in tissues of ob/ob mice treated with Rosiglitazone; type: in vivo, mouse
[2] = Plasma glucose and triglycerides in ob/ob mice treated with Rosiglitazone; type: in vivo, mouse; details: after the first administration

## CN(CCOc1ccc(CC2SC(=O)NC2=O)cc1)c1ccccn1 (stereo not drawn) [Rosiglitazone, rosiglitazone]
[1]; 30 μmol/kg/day orally, 7 days
  ADAMTS-1 expression in mesenterial fat: decreases the expression in obese mice close to levels found in lean animals; also recorded: down-regulation occurred
[1]; 30 μmol/kg/day, 7 days
  ADAMTS-1 expression in brown fat tissue: down-regulation occurred
  ADAMTS-1 expression in epididymal fat: further reduced; also recorded: down-regulated
[1]; after the first administration (daily dosing time course)
  ADAMTS-1 expression in epididymal fat: decrease substantially
[2]
  plasma glucose: not lowered
  plasma triglycerides: not lowered
